According to paper PMC12374821:
No constants are given. Whether binding was seen depends on the method and setting. Binding seen in cells or lysates may run through a third protein. Some entries that bind do so weakly or less than the wild type. One block for each molecule: values may come before it.

By UniProt entry, the sequences of proteins in these tests, tags left out.
UniProt P61073: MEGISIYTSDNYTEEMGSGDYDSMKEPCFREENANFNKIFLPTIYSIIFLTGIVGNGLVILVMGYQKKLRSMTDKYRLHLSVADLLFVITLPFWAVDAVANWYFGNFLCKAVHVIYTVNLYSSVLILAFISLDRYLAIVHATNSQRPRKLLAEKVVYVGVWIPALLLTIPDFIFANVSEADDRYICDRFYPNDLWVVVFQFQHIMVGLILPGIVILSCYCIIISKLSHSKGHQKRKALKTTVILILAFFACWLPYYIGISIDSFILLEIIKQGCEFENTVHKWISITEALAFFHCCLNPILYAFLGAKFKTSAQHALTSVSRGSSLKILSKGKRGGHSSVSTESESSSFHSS

Legend:
[1] = biological target: T1, Polo-like kinase 4 (PLK4), endogenous (human (endogenous in SK-N-SH and IMR-32)) (UniProt O00444); assay: co-IP; lysates of SK-N-SH and IMR-32 cells, endogenous proteins; primary antibody overnight at 4°C, protein A/G Dynabeads, normal IgG as control; co-IP and reciprocal co-IP, western blot
T1 sequence: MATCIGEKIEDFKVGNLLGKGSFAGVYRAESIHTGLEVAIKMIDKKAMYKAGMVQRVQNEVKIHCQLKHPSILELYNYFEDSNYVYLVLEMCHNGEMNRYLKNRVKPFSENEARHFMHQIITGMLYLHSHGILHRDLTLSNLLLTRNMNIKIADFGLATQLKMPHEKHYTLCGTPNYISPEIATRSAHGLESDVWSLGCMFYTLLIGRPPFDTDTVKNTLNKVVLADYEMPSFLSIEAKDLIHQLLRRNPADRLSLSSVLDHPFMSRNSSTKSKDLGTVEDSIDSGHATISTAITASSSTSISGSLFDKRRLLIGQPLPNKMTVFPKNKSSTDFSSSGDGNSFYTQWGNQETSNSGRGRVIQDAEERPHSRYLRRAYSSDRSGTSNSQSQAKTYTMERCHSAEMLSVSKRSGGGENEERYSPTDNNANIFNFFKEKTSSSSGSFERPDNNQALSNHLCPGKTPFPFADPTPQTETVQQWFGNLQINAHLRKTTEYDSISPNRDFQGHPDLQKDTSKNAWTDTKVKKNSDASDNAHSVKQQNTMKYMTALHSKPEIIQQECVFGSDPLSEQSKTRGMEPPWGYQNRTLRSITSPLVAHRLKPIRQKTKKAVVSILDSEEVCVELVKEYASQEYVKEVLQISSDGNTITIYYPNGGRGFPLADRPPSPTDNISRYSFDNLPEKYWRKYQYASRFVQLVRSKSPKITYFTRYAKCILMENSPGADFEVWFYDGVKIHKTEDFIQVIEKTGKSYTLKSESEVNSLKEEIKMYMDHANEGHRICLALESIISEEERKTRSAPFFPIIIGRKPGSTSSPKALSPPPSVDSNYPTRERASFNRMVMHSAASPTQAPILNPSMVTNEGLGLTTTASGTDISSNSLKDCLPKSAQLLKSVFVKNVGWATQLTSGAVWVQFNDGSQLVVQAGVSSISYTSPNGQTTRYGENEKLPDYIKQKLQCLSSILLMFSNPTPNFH

[2] = biological target: C-X-C chemokine receptor type 4 (CXCR4), endogenous (human (endogenous in SK-N-SH, IMR-32 and SH-SY5Y)) (UniProt P61073); assay: as above
[3] = biological target: C-X-C chemokine receptor type 4 (CXCR4), endogenous (human (endogenous in SK-N-SH, IMR-32 and SH-SY5Y)) (UniProt P61073); assay: co-IP; lysates of SH-SY5Y cells overexpressing PLK4; primary antibody overnight at 4°C, protein A/G Dynabeads, normal IgG as control; western blot

binding [1]: binds
Molecule: C-X-C chemokine receptor type 4 (CXCR4), endogenous (from UniProt P61073 1-352)

binding [2]: binds
B1: Polo-like kinase 4 (PLK4), endogenous (protein, UniProt O00444 1-970)
chain: T1 sequence

binding [3]: binds
B2: PLK4, overexpressed (exogenous) in SH-SY5Y cells (protein, UniProt O00444 1-970)
chain: T1 sequence
